According to US20250283871A1, “COMPOSITIONS AND METHODS FOR MODULATING THE INTERACTION BETWEEN SS18-SSX FUSION ONCOPROTEIN AND NUCLEOSOMES” (Dana-Farber Cancer Institute, Inc., priority 2020, published 2025):

B1: ZC3H18 (protein, UniProt Q86VM9 1-953, looked up)
Zinc finger CCCH …: MDVAESPERDPHSPEDEEQPQGLSDDDILRDSGSDQDLDGAGVRASDLEDEESAARGPSQEEEDNHSDEEDRASEPKSQDQDSEVNELSRGPTSSPCEEEGDEGEEDRTSDLRDEASSVTRELDEHELDYDEEVPEEPAPAVQEDEAEKAGAEDDEEKGEGTPREEGKAGVQSVGEKESLEAAKEKKKEDDDGEIDDGEIDDDDLEEGEVKDPSDRKVRPRPTCRFFMKGNCTWGMNCRFIHPGVNDKGNYSLITKADPFPPNGAPPLGPHPLMPANPWGGPVVDEILPPPPPEPPTESAWERGLRHAKEVLKKATIRKEQEPDFEEKRFTVTIGEDEREFDKENEVFRDWNSRIPRDVRDTVLEPYADPYYDYEIERFWRGGQYENFRVQYTETEPYHNYRERERERERENRQRERERERERDRERERRQRERERERERERDKERQRRKEEWERERAKRDEKDRQHRDRDREKEREKEKGKPKPRSPQPPSRQAEPPKKEAATTGPQVKRADEWKDPWRRSKSPKKKLGVSVSPSRARRRRKTSASSASASNSSRSSSRSSSYSGSGSSRSRSRSSSYSSYSSRSSRHSSFSGSRSRSRSFSSSPSPSPTPSPHRPSIRTKGEPAPPPGKAGEKSVKKPAPPPAPPQATKTTAPVPEPTKPGDPREARRKERPARTPPRRRTLSGSGSGSGSSYSGSSSRSRSLSVSSVSSVSSATSSSSSAHSVDSEDMYADLASPVSSASSRSPAPAQTRKEKGKSKKEDGVKEEKRKRDSSTQPPKSAKPPAGGKSSQQPSTPQQAPPGQPQQGTFVAHKEIKLTLLNKAADKGSRKRYEPSDKDRQSPPPAKRPNTSPDRGSRDRKSGGRLGSPKPERQRGQNSKAPAAPADRKRQLSPQSKSSSKVTSVPGKASDPGAASTKSGKASTLSRREELLKQLKAVEDAIARKRAKIPGKA
B2: UTP6 (protein, UniProt Q9NYH9 1-597, looked up)
U3 small nucleolar …: MAEIIQERIEDRLPELEQLERIGLFSHAEIKAIIKKASDLEYKIQRRTLFKEDFINYVQYEINLLELIQRRRTRIGYSFKKDEIENSIVHRVQGVFQRASAKWKDDVQLWLSYVAFCKKWATKTRLSKVFSAMLAIHSNKPALWIMAAKWEMEDRLSSESARQLFLRALRFHPECPKLYKEYFRMELMHAEKLRKEKEEFEKASMDVENPDYSEEILKGELAWIIYKNSVSIIKGAEFHVSLLSIAQLFDFAKDLQKEIYDDLQALHTDDPLTWDYVARRELEIESQTEEQPTTKQAKAVEVGRKEERCCAVYEEAVKTLPTEAMWKCYITFCLERFTKKSNSGFLRGKRLERTMTVFRKAHELKLLSECQYKQLSVSLLCYNFLREALEVAVAGTELFRDSGTMWQLKLQVLIESKSPDIAMLFEEAFVHLKPQVCLPLWISWAEWSEGAKSQEDTEAVFKKALLAVIGADSVTLKNKYLDWAYRSGGYKKARAVFKSLQESRPFSVDFFRKMIQFEKEQESCNMANIREYYERALREFGSADSDLWMDYMKEELNHPLGRPENCGQIYWRAMKMLQGESAEAFVAKHAMHQTGHL
B3: TBL3 (protein, UniProt Q12788 2-808, looked up)
Transducin beta-like protein 3: AETAAGVGRFKTNYAVERKIEPFYKGGKAQLDQTGQHLFCVCGTRVNILEVASGAVLRSLEQEDQEDITAFDLSPDNEVLVTASRALLLAQWAWQEGSVTRLWKAIHTAPVATMAFDPTSTLLATGGCDGAVRVWDIVRHYGTHHFRGSPGVVHLVAFHPDPTRLLLFSSATDAAIRVWSLQDRSCLAVLTAHYSAVTSLAFSADGHTMLSSGRDKICIIWDLQSCQATRTVPVFESVEAAVLLPEEPVSQLGVKSPGLYFLTAGDQGTLRVWEAASGQCVYTQAQPPGPGQELTHCTLAHTAGVVLTATADHNLLLYEARSLRLQKQFAGYSEEVLDVRFLGPEDSHVVVASNSPCLKVFELQTSACQILHGHTDIVLALDVFRKGWLFASCAKDQSVRIWRMNKAGQVMCVAQGSGHTHSVGTVCCSRLKESFLVTGSQDCTVKLWPLPKALLSKNTAPDNGPILLQAQTTQRCHDKDINSVAIAPNDKLLATGSQDRTAKLWALPQCQLLGVFSGHRRGLWCVQFSPMDQVLATASADGTIKLWALQDFSCLKTFEGHDASVLKVAFVSRGTQLLSSGSDGLVKLWTIKNNECVRTLDAHEDKVWGLHCSRLDDHALTGASDSRVILWKDVTEAEQAEEQARQEEQVVRQQELDNLLHEKRYLRALGLAISLDRPHTVLTVIQAIRRDPEACEKLEATMLRLRRDQKEALLRFCVTWNTNSRHCHEAQAVLGVLLRREAPEELLAYEGVRAALEALLPYTERHFQRLSRTLQAAAFLDFLWHNMKLPVPAAAPTPWETHKGALP
B4: RAD21 (protein, UniProt O60216 1-631, looked up)
Double-strand-break repair …: MFYAHFVLSKRGPLAKIWLAAHWDKKLTKAHVFECNLESSVESIISPKVKMALRTSGHLLLGVVRIYHRKAKYLLADCNEAFIKIKMAFRPGVVDLPEENREAAYNAITLPEEFHDFDQPLPDLDDIDVAQQFSLNQSRVEEITMREEVGNISILQENDFGDFGMDDREIMREGSAFEDDDMLVSTTTSNLLLESEQSTSNLNEKINHLEYEDQYKDDNFGEGNDGGILDDKLISNNDGGIFDDPPALSEAGVMLPEQPAHDDMDEDDNVSMGGPDSPDSVDPVEPMPTMTDQTTLVPNEEEAFALEPIDITVKETKAKRKRKLIVDSVKELDSKTIRAQLSDYSDIVTTLDLAPPTKKLMMWKETGGVEKLFSLPAQPLWNNRLLKLFTRCLTPLVPEDLRKRRKGGEADNLDEFLKEFENPEVPREDQQQQHQQRDVIDEPIIEEPSRLQESVMEASRTNIDESAMPPPPPQGVKRKAGQIDPEPVMPPQQVEQMEIPPVELPPEEPPNICQLIPELELLPEKEKEKEKEKEDDEEEEDEDASGGDQDQEERRWNKRTQQMLHGLQRALAKTGAESISLLELCRNTNRKQAAAKFYSFLVLKKQQAIELTQEEPYSDIIATPGPRFHII
B5: HNRNPH1 (protein, UniProt P31943 1-449, looked up)
Heterogeneous nuclear …: MMLGTEGGEGFVVKVRGLPWSCSADEVQRFFSDCKIQNGAQGIRFIYTREGRPSGEAFVELESEDEVKLALKKDRETMGHRYVEVFKSNNVEMDWVLKHTGPNSPDTANDGFVRLRGLPFGCSKEEIVQFFSGLEIVPNGITLPVDFQGRSTGEAFVQFASQEIAEKALKKHKERIGHRYIEIFKSSRAEVRTHYDPPRKLMAMQRPGPYDRPGAGRGYNSIGRGAGFERMRRGAYGGGYGGYDDYNGYNDGYGFGSDRFGRDLNYCFSGMSDHRYGDGGSTFQSTTGHCVHMRGLPYRATENDIYNFFSPLNPVRVHIEIGPDGRVTGEADVEFATHEDAVAAMSKDKANMQHRYVELFLNSTAGASGGAYEHRYVELFLNSTAGASGGAYGSQMMGGMGLSNQSSYGGPASQQLSGGYGGGYGGQSSMSGYDQVLQENSSDFQSNIA
B6: DDX27 (protein, UniProt Q96GQ7 1-765, looked up)
Probable ATP-dependent RNA …: MLADLGLIGTIGEDDEVPVEPESDSGDEEEEGPIVLGRRQKALGKNRSADFNPDFVFTEKEGTYDGSWALADVMSQLKKKRAATTLDEKIEKVRKKRKTEDKEAKSGKLEKEKEAKEGSEPKEQEDLQENDEEGSEDEASETDYSSADENILTKADTLKVKDRKKKKKKGQEAGGFFEDASQYDENLSFQDMNLSRPLLKAITAMGFKQPTPIQKACIPVGLLGKDICACAATGTGKTAAFALPVLERLIYKPRQAPVTRVLVLVPTRELGIQVHSVTRQLAQFCNITTCLAVGGLDVKSQEAALRAAPDILIATPGRLIDHLHNCPSFHLSSIEVLILDEADRMLDEYFEEQMKEIIRMCSHHRQTMLFSATMTDEVKDLASVSLKNPVRIFVNSNTDVAPFLRQEFIRIRPNREGDREAIVAALLTRTFTDHVMLFTQTKKQAHRMHILLGLMGLQVGELHGNLSQTQRLEALRRFKDEQIDILVATDVAARGLDIEGVKTVINFTMPNTIKHYVHRVGRTARAGRAGRSVSLVGEDERKMLKEIVKAAKAPVKARILPQDVILKFRDKIEKMEKDVYAVLQLEAEEKEMQQSEAQINTAKRLLEKGKEAVVQEPERSWFQTKEERKKEKIAKALQEFDLALRGKKKRKKFMKDAKKKGEMTAEERSQFEILKAQMFAERLAKRNRRAKRARAMPEEEPVRGPAKKQKQGKKSVFDEELTNTSKKALKQYRAGPSFEERKQLGLPHQRRGGNFKSKSRYKRRK
B7: PUM3 (protein, UniProt Q15397 1-648, looked up)
Pumilio homolog 3: MEVKGKKQFTGKSTKTAQEKNRFHKNSDSGSSKTFPTRKVAKEGGPKVTSRNFEKSITKLGKKGVKQFKNKQQGDKSPKNKFQPANKFNKKRKFQPDGRSDESAAKKPKWDDFKKKKKELKQSRQLSDKTNYDIVVRAKQMWEILRRKDCDKEKRVKLMSDLQKLIQGKIKTIAFAHDSTRVIQCYIQYGNEEQRKQAFEELRDDLVELSKAKYSRNIVKKFLMYGSKPQIAEIIRSFKGHVRKMLRHAEASAIVEYAYNDKAILEQRNMLTEELYGNTFQLYKSADHRTLDKVLEVQPEKLELIMDEMKQILTPMAQKEAVIKHSLVHKVFLDFFTYAPPKLRSEMIEAIREAVVYLAHTHDGARVAMHCLWHGTPKDRKVIVKTMKTYVEKVANGQYSHLVLLAAFDCIDDTKLVKQIIISEIISSLPSIVNDKYGRKVLLYLLSPRDPAHTVREIIEVLQKGDGNAHSKKDTEVRRRELLESISPALLSYLQEHAQEVVLDKSACVLVSDILGSATGDVQPTMNAIASLAATGLHPGGKDGELHIAEHPAGHLVLKWLIEQDKKMKENGREGCFAKTLVEHVGMKNLKSWASVNRGAIILSSLLQSCDLEVANKVKAALKSLIPTLEKTKSTSKGIEILLEKLST

System: BAF complex subunits and histone proteins
Test: Mass spectrometry proteomics of purified HA-SS18 WT and HA-SS18-SSX1 complexes (Tables 5A-5E)
Parameters: species or system human
[1] = HA-SS18SSX1_CHR_peptides: protein identified in the HA-SS18-SSX1 purification from solubilized chromatin (CHR), HEK-293T
[2] = HA-SS18WT_CHR_peptides: HA-SS18 WT purification from nuclease-treated solubilized chromatin (CHR), HEK-293T, label = protein identified
[3] = HA-SS18SSX1_NE_peptides: protein co-purified with HA-SS18-SSX1 BAF complexes from soluble nuclear extract (NE), HEK-293T cells
[4] = HA-SS18WT_NE_peptides: proteins co-purified with HA-SS18 WT from nuclear extract (NE), HEK-293T
[5] = HA-SS18SSX1 purification, NE (soluble nuclear extract) fraction, HEK-293T, peptides per identified protein
[6] = HA-SS18WT_NE_peptides: HA-SS18 WT complexes purified from nuclear extract (NE), HEK-293T, label = protein identified (Gene Symbol)
[7] = HA-SS18SSX1_NE_peptides (Table 5B), HA-SS18-SSX1 BAF complex purification from soluble nuclear extract, HEK-293T

Molecule	Total (total peptides) [1]	Unique (unique peptides) [1]	Total (peptides) [2]	Unique (peptides) [2]	Total (peptides) [3]	Unique (peptides) [3]	Total (peptides) [4]	Unique (peptides) [4]	Total (total peptides) [5]	Unique (unique peptides) [5]	Total (peptides) [6]	Unique (peptides) [6]	Total (peptides) [7]	Unique (peptides) [7]
B1	13	9	9	6										
B2	11	11	4	4										
B3	11	11	7	7	2	2	1	1						
B4	11	11	10	9										
B5	12	6	6	4					5	4	3	3		
B6	12	12	14	13									1	1
B7	11	11	5	5										
